Test results published in paper PMC6084981.
Changes are numbered by the printed parent chain. No constants are given. Whether binding was seen depends on the method and setting. Binding seen in cells or lysates may run through a third protein. Here binding means that the protein was enriched with, or labelled near, the bait; the list need not be complete. For some assays here: No binding means not detected with the bait. Tags and fused reporters may be left off the sequences shown.

By UniProt entry, the sequences of proteins in these tests, tags left out.
UniProt Q9M658: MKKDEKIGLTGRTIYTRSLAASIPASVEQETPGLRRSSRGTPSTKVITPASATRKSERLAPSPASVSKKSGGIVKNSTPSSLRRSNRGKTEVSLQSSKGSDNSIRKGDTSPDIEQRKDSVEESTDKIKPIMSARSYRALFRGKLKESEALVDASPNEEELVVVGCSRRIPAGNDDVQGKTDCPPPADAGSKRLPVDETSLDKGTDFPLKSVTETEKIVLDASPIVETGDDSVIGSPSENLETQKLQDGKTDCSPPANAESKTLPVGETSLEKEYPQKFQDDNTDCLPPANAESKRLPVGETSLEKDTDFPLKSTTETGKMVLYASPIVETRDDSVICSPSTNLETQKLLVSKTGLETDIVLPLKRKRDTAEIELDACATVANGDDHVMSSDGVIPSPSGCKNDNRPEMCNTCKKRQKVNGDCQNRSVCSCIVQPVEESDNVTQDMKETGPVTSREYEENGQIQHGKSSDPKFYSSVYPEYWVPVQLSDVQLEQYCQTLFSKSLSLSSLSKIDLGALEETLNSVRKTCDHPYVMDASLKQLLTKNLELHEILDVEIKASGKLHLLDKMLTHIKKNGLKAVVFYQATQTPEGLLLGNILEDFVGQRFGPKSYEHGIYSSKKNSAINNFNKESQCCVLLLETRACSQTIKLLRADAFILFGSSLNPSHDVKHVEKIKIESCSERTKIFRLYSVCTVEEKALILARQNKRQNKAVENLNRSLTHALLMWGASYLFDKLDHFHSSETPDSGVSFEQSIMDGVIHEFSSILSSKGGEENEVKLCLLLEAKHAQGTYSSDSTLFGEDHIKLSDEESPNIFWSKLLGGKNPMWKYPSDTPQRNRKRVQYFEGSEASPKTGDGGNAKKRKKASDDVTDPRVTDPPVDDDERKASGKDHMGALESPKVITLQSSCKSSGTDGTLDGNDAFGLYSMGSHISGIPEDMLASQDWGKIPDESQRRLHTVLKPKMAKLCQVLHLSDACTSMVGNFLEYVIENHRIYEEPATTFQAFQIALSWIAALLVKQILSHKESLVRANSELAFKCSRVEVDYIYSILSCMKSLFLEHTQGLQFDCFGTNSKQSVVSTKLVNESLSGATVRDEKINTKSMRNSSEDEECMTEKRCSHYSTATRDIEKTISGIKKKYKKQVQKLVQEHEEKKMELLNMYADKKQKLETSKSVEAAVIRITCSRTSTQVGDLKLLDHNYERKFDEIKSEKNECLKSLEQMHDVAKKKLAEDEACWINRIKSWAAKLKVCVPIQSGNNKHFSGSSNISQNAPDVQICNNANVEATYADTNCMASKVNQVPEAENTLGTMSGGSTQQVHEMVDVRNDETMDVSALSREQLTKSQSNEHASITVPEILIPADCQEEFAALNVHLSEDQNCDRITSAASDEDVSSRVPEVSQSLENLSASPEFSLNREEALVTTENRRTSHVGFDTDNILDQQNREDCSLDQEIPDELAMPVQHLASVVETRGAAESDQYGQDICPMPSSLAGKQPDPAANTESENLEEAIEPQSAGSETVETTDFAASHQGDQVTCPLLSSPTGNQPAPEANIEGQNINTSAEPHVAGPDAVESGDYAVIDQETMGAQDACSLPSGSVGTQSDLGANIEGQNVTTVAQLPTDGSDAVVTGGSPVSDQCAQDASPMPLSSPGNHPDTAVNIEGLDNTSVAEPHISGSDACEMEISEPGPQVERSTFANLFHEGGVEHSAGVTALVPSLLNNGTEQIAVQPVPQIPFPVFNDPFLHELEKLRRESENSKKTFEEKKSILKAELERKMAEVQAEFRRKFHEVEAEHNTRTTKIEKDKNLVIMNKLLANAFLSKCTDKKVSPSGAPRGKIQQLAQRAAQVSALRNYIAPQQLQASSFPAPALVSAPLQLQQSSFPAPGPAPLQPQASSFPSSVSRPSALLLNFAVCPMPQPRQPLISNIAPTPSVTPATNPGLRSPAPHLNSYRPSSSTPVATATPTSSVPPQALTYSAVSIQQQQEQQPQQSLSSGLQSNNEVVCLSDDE

Assays:
PIAL2-Myc (Arabidopsis) = target: T1, PIAL2-Myc (Arabidopsis) (UniProt F4JYG0); test: affinity purification with mass spectrometry; protein extract of transgenic Arabidopsis (flowers); purification with the anti-Myc antibody (results) / anti-Flag affinity gel (methods), 2.5 h at 4°C, lysis buffer 50 mM Tris-HCl pH 7.6, 150 mM NaCl, 5 mM MgCl2, 10% glycerol, 0.1% NP-40; gel bands analysed by mass spectrometry
T1 sequence: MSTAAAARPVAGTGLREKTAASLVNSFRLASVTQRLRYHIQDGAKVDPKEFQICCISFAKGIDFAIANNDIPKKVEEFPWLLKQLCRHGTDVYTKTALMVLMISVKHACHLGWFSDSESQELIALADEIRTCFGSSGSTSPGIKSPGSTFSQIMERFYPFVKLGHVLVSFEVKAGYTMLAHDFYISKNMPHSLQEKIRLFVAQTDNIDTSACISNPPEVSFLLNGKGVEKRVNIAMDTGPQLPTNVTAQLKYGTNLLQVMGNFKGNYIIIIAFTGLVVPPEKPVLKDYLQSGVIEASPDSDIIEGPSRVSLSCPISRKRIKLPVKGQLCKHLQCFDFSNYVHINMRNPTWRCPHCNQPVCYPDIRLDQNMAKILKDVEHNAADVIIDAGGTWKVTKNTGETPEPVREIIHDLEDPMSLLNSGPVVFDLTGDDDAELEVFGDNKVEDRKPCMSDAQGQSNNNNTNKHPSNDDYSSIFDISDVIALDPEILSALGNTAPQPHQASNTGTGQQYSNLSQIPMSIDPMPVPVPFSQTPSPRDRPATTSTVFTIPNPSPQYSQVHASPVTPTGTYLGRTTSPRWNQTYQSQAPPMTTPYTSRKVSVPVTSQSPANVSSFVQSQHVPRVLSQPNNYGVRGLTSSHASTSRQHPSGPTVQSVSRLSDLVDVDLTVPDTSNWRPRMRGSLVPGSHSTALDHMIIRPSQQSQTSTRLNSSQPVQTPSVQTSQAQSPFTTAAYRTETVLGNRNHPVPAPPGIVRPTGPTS

[1] = target: T2, PIAL2-IND-M-Myc (Arabidopsis) (UniProt F4JYG0); test: as above
T2 sequence: T1 sequence with D182A, F183A, I185A

- binding (PIAL2-Myc (Arabidopsis)): binds
- binding [1]: no binding
Substance: MOM1 (endogenous, co-purified from transgenic plants) (from UniProt Q9M658 1-2001)
